Data set [1] can be described thus: Clearance of 99m-Tc-IMP-192 in BALB/c mice. In kind it is in vivo. The following applies: mouse, total radioactivity. How it is done: In vitro stability of the Tc-99m complex of this peptidyl chelate was established by incubations in saline, fresh human serum and 10 mM cysteine for up to 20 h. In vivo stability was examined by analysis of urine collected from a mouse injected with 99m-Tc-IMP-192 in a pretargeting experiment.

Data set [2] can be described thus: Pretargeting: 125-I-hMN-14 × 734 bsAb, 24 h later 99m-Tc-IMP-192, biodistribution. In kind it is in vivo, Nude mice. The following applies: female, NCRNU nude, mouse, total radioactivity, 24 h post peptide.
Data set [3] in a line: Pretargeting: 125-I-hMN-14 × 734 bsAb, 48 h later 111-In-indium-IMP-156, biodistribution. The data set is classed as in vivo, nude mice. The following applies: female, nude (Taconic NCRNU), mouse, 3 h post peptide.

As for `CC(=O)N[C@@H](CCCCNC(=O)CN(CCN(CCN(CC(=O)O)CC(=O)O)CC(=O)O)CC(=O)O)C(=O)N[C@@H](Cc1ccc(O)cc1)C(=O)N[C@@H](CCCCNC(=O)CN(CCN(CCN(CC(=O)O)CC(=O)O)CC(=O)O)CC(=O)O)C(=O)N[C@@H](CCCCNC(=O)[C@H](CS)NC(=O)C=NNC(N)=S)C(N)=O` [IMP 192, Ac-Lys(DTPA)-Tyr-Lys(DTPA)-Lys(Tscg-Cys)-NH2], the tissue uptake (usually the percentage of the injected dose found per gram of tissue) at 1 h in data set [1] (large intestine, Lg.Int.) is 0.41 ± 0.54 %ID/g; in data set [1] (Stomach), 0.39 ± 0.18 %ID/g. The tissue uptake at 2 h in data set [1] (Stomach, 2 h) came out at 0.42 ± 0.18 %ID/g. The tissue uptake at 24 h in data set [2] (Liver) is 0.4 ± 0.08 %ID/g; in data set [2] (Spleen) it was 0.4 ± 0.2 %ID/g.
Turning to `CC(=O)N[C@@H](Cc1ccccc1)C(=O)N[C@@H](CCCCNC(=O)CN(CCN(CCN(CC(=O)O)CC(=O)O)CC(=O)O)CC(=O)O)C(=O)N[C@@H](Cc1ccc(O)cc1)C(=O)N[C@@H](CCCCNC(=O)CN(CCN(CCN(CC(=O)O)CC(=O)O)CC(=O)O)CC(=O)O)C(N)=O` [IMP 156, Ac-Phe-Lys(DTPA)-Tyr-Lys(DTPA)-NH2], the values for the tissue uptake at 3 h in data set [3] (Liver) and in data set [3] (Spleen) were 0.5 ± 0.09 %ID/g and 0.5 ± 0.1 %ID/g, respectively.

The record behind these values is US20060140858A1, “Drug pre-targeting by means of bi-specific antibodies and hapten constructs comprising a carrier peptide and the active agent(s)” (Immunomedics, Inc., priority 2002, published 2006).
